Measured values as given in publication PMC7819943, “Rice protein-binding microarrays: a tool to detect cis-acting elements near promoter regions in rice”.
This is one part of the list.

What follows are sequences tested against T1, OsSMF1 (Oryza sativa, UniProt Q6ZLB0 1-436) (assay: protein-binding microarray (RPBM); PBS, 2% BSA, 51.3 ng/ul salmon testes DNA, 50 uM zinc acetate, 200 nM TF, 25 C, 1 h; high values mean tight binding). Details: protein: recombinant; tags: N-terminal polyhistidine and DsRed monomer fusion (pET32a); chain copies: 2; label: CyDye5-dUTP incorporated in the synthesized complementary strand; 3' TTTTT single-stranded linker to array surface; dsDNA, one strand shown.
T1 sequence: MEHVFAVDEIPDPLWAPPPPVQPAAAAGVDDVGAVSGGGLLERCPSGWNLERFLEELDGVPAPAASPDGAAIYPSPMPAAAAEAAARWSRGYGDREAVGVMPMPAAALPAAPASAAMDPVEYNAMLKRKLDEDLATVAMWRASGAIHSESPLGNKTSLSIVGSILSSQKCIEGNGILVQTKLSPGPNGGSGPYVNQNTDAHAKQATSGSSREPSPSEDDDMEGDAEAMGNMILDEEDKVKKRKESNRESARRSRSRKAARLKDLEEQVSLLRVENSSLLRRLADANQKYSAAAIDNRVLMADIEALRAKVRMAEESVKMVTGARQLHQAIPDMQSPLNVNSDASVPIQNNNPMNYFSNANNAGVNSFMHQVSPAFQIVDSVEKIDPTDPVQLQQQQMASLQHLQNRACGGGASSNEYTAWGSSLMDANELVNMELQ
In short: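 In PBS with 2% BSA, salmon testes DNA and 50 µM zinc acetate, 200 nM protein was incubated on a custom Agilent array at 25 °C for 1 h and then washed off. The array had been made double-stranded by primer extension with Cy5-dUTP and blocked with 2% BSA. The proteins were transcription factors fused N-terminally to polyhistidine and DsRed, expressed in E. coli BL21-CodonPlus and purified on Ni–NTA. The binding signal is per-feature fluorescence intensity (arbitrary units) from an Axon 4000B scanner.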

Question: For “CAACTCCAGGATACCCTTGATGACTCGAGCTTCTTCAGCTCGGAGTCACCTAGTGCAG”, which binding signal is on record?
Answer: 5160 fluorescence intensity (a.u.)

Question: Which binding signal does the source give for “GGGCTGGGGAAAATGATCGACTACTTTTAACCATTTCAGTCGGAGTCACCTAGTGCAG” here?
Answer: 3420 fluorescence intensity (a.u.)

Question: “GATCTGACGCATGAGTCGGCATGGAGGGCGTCCTGGTGAGCGGAGTCACCTAGTGCAG” was tested. Which binding signal did it give?
Answer: 5090 fluorescence intensity (a.u.)

Question: How did the binding signal turn out when “GACCGAGTCGTGCGCTGGTTGCATCCATCCTTTTCGCACACGGAGTCACCTAGTGCAG” was run?
Answer: 22200 fluorescence intensity (a.u.)

Question: “AAAATTCCTTCTAAATCAGCGGCTAGGTCTGTTTGAAGTTCGGAGTCACCTAGTGCAG” was tested. Which binding signal did it give?
Answer: 3250 fluorescence intensity (a.u.)

Question: “CGCTCTCCAAGGTTGGGTGGCTATTTATGCGTGTATGGATCGGAGTCACCTAGTGCAG” was tested. Which binding signal did it give?
Answer: 3260 fluorescence intensity (a.u.)

Question: How did the binding signal turn out when “TCGCGCCACCGCGTCCGCCTCCCCTCGCGCCGCCGTGTCCCGGAGTCACCTAGTGCAG” was run?
Answer: 3760 fluorescence intensity (a.u.)

Question: “GGATTAATTAGTCTCAAAAGATTCGTCTCGCGGTTTCCAGCGGAGTCACCTAGTGCAG” was tested. Which binding signal did it give?
Answer: 29400 fluorescence intensity (a.u.)

Question: Which binding signal does the source give for “AAAACTTTACCATGTATCTAAACACCAACATGTAATATTGCGGAGTCACCTAGTGCAG” here?
Answer: 34200 fluorescence intensity (a.u.)

Question: With “GGTCAATTTATAACATACCGCAGGTCCGCAAGTGACGAGGCGGAGTCACCTAGTGCAG” as the sequence, how does the binding signal read?
Answer: 3280 fluorescence intensity (a.u.)

Question: For “CCACCTCCAACAACAACGGCCTTGTCATTTCCTCTACCGCCGGAGTCACCTAGTGCAG”, which binding signal is on record?
Answer: 3850 fluorescence intensity (a.u.)

Question: Which binding signal does the source give for “GGGGACATACTTCTCGCAAATGTCTGCGCTACAGTGCTACCGGAGTCACCTAGTGCAG” here?
Answer: 21200 fluorescence intensity (a.u.)

Question: For “TAAGCTACCTACTAATGCCACGTGGCGGCCGTCAAGCGGGCGGAGTCACCTAGTGCAG”, which binding signal is on record?
Answer: 19700 fluorescence intensity (a.u.)

Question: For “TAATTTTCGAGTTTCCACGATATGTGGTTTGCCCGATATACGGAGTCACCTAGTGCAG”, which binding signal is on record?
Answer: 3370 fluorescence intensity (a.u.)

Question: How did the binding signal turn out when “TGCAGCGATGACGTATGCTGCAGTGCATCACGCAGTCGTACGGAGTCACCTAGTGCAG” was run?
Answer: 8070 fluorescence intensity (a.u.)

Question: Which binding signal does the source give for “AGTGGGCACACCTTCCTCTCCTAGCTACCAAATTCTCTTCCGGAGTCACCTAGTGCAG” here?
Answer: 17500 fluorescence intensity (a.u.)

Question: How did the binding signal turn out when “CAAAACAGAAATCTGCCGCATTTCACGTGTAAAAGAAGAACGGAGTCACCTAGTGCAG” was run?
Answer: 31900 fluorescence intensity (a.u.)

Question: “AATTCATGAATTTTCTCTCCTTCTCATGCAATATCTGACTCGGAGTCACCTAGTGCAG” was tested. Which binding signal did it give?
Answer: 3500 fluorescence intensity (a.u.)

Question: “CTCTCCTCTTTGCATGCATTCCTCCTGCCAAGAGTGCTGACGGAGTCACCTAGTGCAG” was tested. Which binding signal did it give?
Answer: 3400 fluorescence intensity (a.u.)

Question: “CCACCACTGTCCTTCTCGCTTGCCGTGCCTCATCACCGCCCGGAGTCACCTAGTGCAG” was tested. Which binding signal did it give?
Answer: 3860 fluorescence intensity (a.u.)

Question: Which binding signal does the source give for “TAAAGAAAGAAAAGACATTAATAAAGCAGCAAAGAAAAGACGGAGTCACCTAGTGCAG” here?
Answer: 46000 fluorescence intensity (a.u.)

Question: For “TAGGGTTGTCATCGCTTGCCACCTACCTCTATAATCCGTGCGGAGTCACCTAGTGCAG”, which binding signal is on record?
Answer: 4030 fluorescence intensity (a.u.)

Question: For “GAATAATTTATTAAATAATTTATAAATCCTGAAACGAAAACGGAGTCACCTAGTGCAG”, which binding signal is on record?
Answer: 3520 fluorescence intensity (a.u.)

Question: For “TGTCATGCTTAAAGAACATTTGATGATAAATCAAATCATACGGAGTCACCTAGTGCAG”, which binding signal is on record?
Answer: 36400 fluorescence intensity (a.u.)

Question: How did the binding signal turn out when “TGAAGCCGTGACACGGTTCTCTAATCTGCTGAAGTCATGTCGGAGTCACCTAGTGCAG” was run?
Answer: 3880 fluorescence intensity (a.u.)

Question: “GCCACCGAACGAACGCGCCGACCGACCGCGCGAAGATCTGCGGAGTCACCTAGTGCAG” was tested. Which binding signal did it give?
Answer: 3290 fluorescence intensity (a.u.)

Question: With “CAAACCAAACCCGCGCAAGCCAATCCACCCCGGCCTAGTCCGGAGTCACCTAGTGCAG” as the sequence, how does the binding signal read?
Answer: 3150 fluorescence intensity (a.u.)

Question: For “TACACTTGCCCGGTCATAACCCTAACCATTTCTTCCCTTCCGGAGTCACCTAGTGCAG”, which binding signal is on record?
Answer: 4630 fluorescence intensity (a.u.)

Question: With “TTGAAAATAACATTCCAAACCGATGACGCTCCGCTCCCTCCGGAGTCACCTAGTGCAG” as the sequence, how does the binding signal read?
Answer: 3660 fluorescence intensity (a.u.)

Question: With “TGCTTCTCTCCGTGATGTGTGTGGGCCCACTAGCCACCGCCGGAGTCACCTAGTGCAG” as the sequence, how does the binding signal read?
Answer: 3150 fluorescence intensity (a.u.)

Question: For “TCTCTCGCCGATTCCGCCACCGCCGCCGCGCCGCGCCTCGCGGAGTCACCTAGTGCAG”, which binding signal is on record?
Answer: 3260 fluorescence intensity (a.u.)

Question: How did the binding signal turn out when “CGTCCGCCTTGAACACGTGCGCCTCGGGCGTCTCCTTCCACGGAGTCACCTAGTGCAG” was run?
Answer: 4500 fluorescence intensity (a.u.)

Question: For “GATACTGCTGTACTTGGAGCCAAGCGAGAGAGAAGACTGACGGAGTCACCTAGTGCAG”, which binding signal is on record?
Answer: 3880 fluorescence intensity (a.u.)

Question: Which binding signal does the source give for “ACCGGTTTGACCACGCCACTTCCTGCACCAGTCCACATACCGGAGTCACCTAGTGCAG” here?
Answer: 3940 fluorescence intensity (a.u.)

Question: How did the binding signal turn out when “TGGGTTTTGAATTTTCGAGGAAATTCTTACCGCCACAATACGGAGTCACCTAGTGCAG” was run?
Answer: 20600 fluorescence intensity (a.u.)

Question: For “GTACCAGATGTGACACATTCTATTACTATGAATATGGATACGGAGTCACCTAGTGCAG”, which binding signal is on record?
Answer: 3680 fluorescence intensity (a.u.)

Question: Which binding signal does the source give for “CTCCTTTTATAGGCTTTGATAACTTGTGTTTAGCCTTGAGCGGAGTCACCTAGTGCAG” here?
Answer: 34200 fluorescence intensity (a.u.)

Question: How did the binding signal turn out when “GAAGACAAACAACCTATCGCTAGCATGCGAGATTTCTCTACGGAGTCACCTAGTGCAG” was run?
Answer: 35100 fluorescence intensity (a.u.)

Question: For “CTATTTGTCATCCCTATCTCAATGACATGTGAGTCTAAATCGGAGTCACCTAGTGCAG”, which binding signal is on record?
Answer: 3180 fluorescence intensity (a.u.)

Question: “CAATTCGGCTTTGTGTATAACATCATTGGTGATGTGGAATCGGAGTCACCTAGTGCAG” was tested. Which binding signal did it give?
Answer: 7500 fluorescence intensity (a.u.)

Question: “CCGTCGAGCTCCCGGGATCTGGTCGTGGCACGCTCAGGGGCGGAGTCACCTAGTGCAG” was tested. Which binding signal did it give?
Answer: 5300 fluorescence intensity (a.u.)

Question: “CGGTGTGAAACCAACCACGCCGGTGGATCCACGGCGGCGCCGGAGTCACCTAGTGCAG” was tested. Which binding signal did it give?
Answer: 3290 fluorescence intensity (a.u.)
